Record: PubChem BioAssay AID1259308 (NCATS, 2017)
Shown is one part, drawn at random, of about 59,000 reagents tested. In the full data, about 1,510 (2.6%) got an active call. 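Calls use total luciferase alone and ignore viability, so some active siRNAs may act by altering cell number.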 A number with no mark means an inactive call.

Purpose: 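Candidate targets for better recombinant protein yield in mammalian cells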 (primary screen)
Cells: human HEK293 embryonic kidney cells stably expressing firefly luciferase (HEK-CMV-Luc2-Hygro)
Reagents: single siRNA against human genes, 0.8 pmol siRNA per well
Time to read-out: 72 h
Read-out: 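Reporter luminescence and viable-cell signal on separate replicate plates, given as percent of non-targeting control and median/MAD z-scores, plus per-cell luciferase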
Scale: total luciferase, z-score and total luciferase, % of control: higher = more reporter protein produced; luciferase per cell, z-score: higher = more reporter output per viable cell; viable cells, % of control: higher = more viable cells
Hit rule: 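Active when the median/MAD z-score for overall luciferase is greater than 3; a gene was taken forward for validation with new siRNAs if at least two of its three siRNAs passed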
Calls: active = raised luciferase; inactive = no rise

no.	target	PubChem SID	total luciferase, z-score	total luciferase, % of control	luciferase per cell, z-score	viable cells, % of control
1	DENND2A (GeneID 27147)	SID160732898	1.54	112	1.43	86.2
2	DENND2A (GeneID 27147)	SID160738460	0.955	101	0.53	98
3	DENND2A (GeneID 27147)	SID160738461	-1.1	60	-1.12	90.2
4	OTOG (GeneID 340990)	SID160764508	-0.563	70.7	0.398	71.1
5	OTOG (GeneID 340990)	SID160764510	1.05	103	0.452	102
6	OTOG (GeneID 340990)	SID160764511	0.232	86.5	0.639	81.7
7	C1QA (GeneID 712)	SID160729477	0.495	91.7	0.206	97.1
8	C1QA (GeneID 712)	SID160729487	0.988	102	1.63	73.8
9	C1QA (GeneID 712)	SID160729498	-1.75	47.2	-1.4	76.1
10	GBF1 (GeneID 8729)	SID160720691	0.0192	82.3	-0.184	96.5
11	GBF1 (GeneID 8729)	SID160720692	-0.877	64.4	-1.67	112
12	GBF1 (GeneID 8729)	SID160720693	1.59	113	0.316	117
13	TPO (GeneID 7173)	SID160718292	1.51	112	0.467	111
14	TPO (GeneID 7173)	SID160718293	-1.24	57.1	-1.44	93.3
15	TPO (GeneID 7173)	SID160731853	0.761	97	0.27	101
16	UBE2NL (GeneID 389898)	SID160733248	2.11	124	1.37	96.4
17	UBE2NL (GeneID 389898)	SID160733249	1.14	104	0.495	102
18	UBE2NL (GeneID 389898)	SID160766312	1.37	109	0.833	97.9
19	EDNRA (GeneID 1909)	SID160758147	1.57	113	1.52	84.8
20	EDNRA (GeneID 1909)	SID160758157	-1.26	56.8	-1.57	96
21	EDNRA (GeneID 1909)	SID160758167	-0.918	63.6	-1.31	100
22	PRH2 (GeneID 5555)	SID160714879	0.0015	81.9	-0.42	102
23	PRH2 (GeneID 5555)	SID160714880	-1.06	60.8	-0.1	69.8
24	PRH2 (GeneID 5555)	SID160714881	-1.05	61.1	-1.17	92.8
25	PHKA2 (GeneID 5256)	SID160714255	0.0469	82.8	0.0151	92.2
26	PHKA2 (GeneID 5256)	SID160714256	-1.9	44	-2.43	93.2
27	PHKA2 (GeneID 5256)	SID160714257	0.608	94	0.0411	104
28	TSC22D4 (GeneID 81628)	SID160724579	-0.0776	80.3	-0.193	94.5
29	TSC22D4 (GeneID 81628)	SID160731971	-0.204	77.8	0.461	77
30	TSC22D4 (GeneID 81628)	SID160750929	-0.045	81	0.743	74.4
31	POLE2 (GeneID 5427)	SID160714601	1.17	105	0.654	99
32	POLE2 (GeneID 5427)	SID160714602	-0.0901	80.1	0.193	85.1
33	POLE2 (GeneID 5427)	SID160714603	-0.194	78	-0.589	102
34	KCTD2 (GeneID 23510)	SID160736424	-0.207	77.8	0.464	76.9
35	KCTD2 (GeneID 23510)	SID160736425	-1.06	60.9	-0.2	71.7
36	KCTD2 (GeneID 23510)	SID160736426	-1.62	49.7	-1.57	83.9
37	OR5T2 (GeneID 219464)	SID160761266	-1.2	58.1	-1.01	84.8
38	OR5T2 (GeneID 219464)	SID160761267	-0.912	63.7	-0.727	86.3
39	OR5T2 (GeneID 219464)	SID160761268	1.29	107	0.784	97.7
40	OR2W3 (GeneID 343171)	SID160764697	2.01	122	2.93	63
41	OR2W3 (GeneID 343171)	SID160764698	-0.132	79.3	-0.233	94.2
42	OR2W3 (GeneID 343171)	SID160764699	-0.169	78.5	0.0844	85.8
43	EPB41L4A (GeneID 64097)	SID160747447	0.415	90.1	0.651	84.8
44	EPB41L4A (GeneID 64097)	SID160747448	0.795	97.7	-0.0231	110
45	EPB41L4A (GeneID 64097)	SID160747449	0.181	85.5	1.14	70.8
46	UTRN (GeneID 7402)	SID160718689	1.15	105	1.14	86.6
47	UTRN (GeneID 7402)	SID160718690	0.0536	83	-0.206	97.9
48	UTRN (GeneID 7402)	SID160718691	1.29	108	0.931	94.1
49	NTSR1 (GeneID 4923)	SID160778289	0.297	87.8	0.422	87.8
50	NTSR1 (GeneID 4923)	SID160778290	-0.846	65.1	-1.37	104
51	NTSR1 (GeneID 4923)	SID160778291	-0.411	73.7	-0.384	91.1
52	ENO2 (GeneID 2026)	SID160760428	-0.203	77.8	-0.464	98.3
53	ENO2 (GeneID 2026)	SID160760439	-1.42	53.7	-1	78.2
54	ENO2 (GeneID 2026)	SID160760449	-2.11	39.9	-2.18	79.1
55	TEX10 (GeneID 54881)	SID160742399	0.273	87.3	0.0464	96.4
56	TEX10 (GeneID 54881)	SID160742400	1.16	105	0.516	102
57	TEX10 (GeneID 54881)	SID160742401	0.255	87	-0.106	99.9

Laid out differently: entries from further up
target | PubChem SID | total luciferase, z-score | total luciferase, % of control | luciferase per cell, z-score | viable cells, % of control
PRH2 (GeneID 5555) | SID160714880 | -1.06 | 60.8 | -0.1 | 69.8
PRH2 (GeneID 5555) | SID160714881 | -1.05 | 61.1 | -1.17 | 92.8
PHKA2 (GeneID 5256) | SID160714255 | 0.0469 | 82.8 | 0.0151 | 92.2
PHKA2 (GeneID 5256) | SID160714256 | -1.9 | 44 | -2.43 | 93.2
PHKA2 (GeneID 5256) | SID160714257 | 0.608 | 94 | 0.0411 | 104
TSC22D4 (GeneID 81628) | SID160724579 | -0.0776 | 80.3 | -0.193 | 94.5
TSC22D4 (GeneID 81628) | SID160731971 | -0.204 | 77.8 | 0.461 | 77
